Binding data for two molecules are collected here from paper PMC12623955.

No constants are given. Whether binding was seen depends on the method and setting. In cells and extracts the contact can be indirect. Binding can be weak; no strength is given.

Assay [1] concerns the target T1, Heme oxygenase 1 (HMOX1) (rat (endogenous in PC12)) (UniProt P06762).
T1 sequence: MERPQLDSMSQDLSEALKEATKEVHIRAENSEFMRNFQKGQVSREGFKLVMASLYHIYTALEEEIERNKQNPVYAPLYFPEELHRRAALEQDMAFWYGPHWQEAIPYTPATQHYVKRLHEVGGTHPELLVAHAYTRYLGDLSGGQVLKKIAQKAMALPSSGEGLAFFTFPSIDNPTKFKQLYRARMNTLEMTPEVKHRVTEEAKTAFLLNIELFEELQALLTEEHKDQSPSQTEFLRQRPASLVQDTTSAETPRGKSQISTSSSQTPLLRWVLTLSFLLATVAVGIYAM
Kind of assay: co-IP; endogenous proteins in PC12 cell lysates, under physiological conditions or after OGD/R (OGD: 6 h; R: 24 h); IP with anti-HMOX1, anti-BNIP3 or anti-IgG and protein A/G magnetic beads, overnight at 4 °C; western blotting. A general note: In western blotting, separated proteins are transferred to a membrane and probed.

For assay [2], the target named is BNIP3 (rat (endogenous in PC12)). Described as above.

With BNIP3 (rat (endogenous in PC12)), the binding result in assay [1] was “binds”.

B1: Heme oxygenase 1 (HMOX1) (enzyme, UniProt P06762 1-289)
chain: MERPQLDSMSQDLSEALKEATKEVHIRAENSEFMRNFQKGQVSREGFKLVMASLYHIYTALEEEIERNKQNPVYAPLYFPEELHRRAALEQDMAFWYGPHWQEAIPYTPATQHYVKRLHEVGGTHPELLVAHAYTRYLGDLSGGQVLKKIAQKAMALPSSGEGLAFFTFPSIDNPTKFKQLYRARMNTLEMTPEVKHRVTEEAKTAFLLNIELFEELQALLTEEHKDQSPSQTEFLRQRPASLVQDTTSAETPRGKSQISTSSSQTPLLRWVLTLSFLLATVAVGIYAM
Turning to B1, the binding entry in assay [2] is reported as “binds”.
